Measured values: the supplement of paper PMC10849652
The other results are listed elsewhere or left out.

The chains behind the UniProt entries cited, without tags or fusion partners. Where a name states a change or a piece, a line headed by the entry shows the natural chain unless it says otherwise.
UniProt Q8IUR7, whole entry, looked up: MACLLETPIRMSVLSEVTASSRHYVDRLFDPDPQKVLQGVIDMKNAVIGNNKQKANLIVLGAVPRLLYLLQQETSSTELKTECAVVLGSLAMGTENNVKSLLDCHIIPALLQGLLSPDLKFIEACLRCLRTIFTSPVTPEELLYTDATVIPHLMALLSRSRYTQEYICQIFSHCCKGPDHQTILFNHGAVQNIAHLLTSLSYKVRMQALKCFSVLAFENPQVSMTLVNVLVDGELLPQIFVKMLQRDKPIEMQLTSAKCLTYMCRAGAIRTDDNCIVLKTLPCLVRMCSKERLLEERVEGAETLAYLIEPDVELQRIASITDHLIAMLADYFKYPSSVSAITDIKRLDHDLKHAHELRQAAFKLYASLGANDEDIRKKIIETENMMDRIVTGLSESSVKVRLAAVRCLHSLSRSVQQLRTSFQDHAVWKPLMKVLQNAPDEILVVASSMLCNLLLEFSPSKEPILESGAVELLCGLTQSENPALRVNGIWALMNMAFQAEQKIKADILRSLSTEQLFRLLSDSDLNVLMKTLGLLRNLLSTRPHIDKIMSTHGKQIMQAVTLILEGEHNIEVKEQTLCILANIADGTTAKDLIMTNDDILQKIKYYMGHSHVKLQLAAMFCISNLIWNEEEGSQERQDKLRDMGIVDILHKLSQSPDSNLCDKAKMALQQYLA
UniProt Q8N264: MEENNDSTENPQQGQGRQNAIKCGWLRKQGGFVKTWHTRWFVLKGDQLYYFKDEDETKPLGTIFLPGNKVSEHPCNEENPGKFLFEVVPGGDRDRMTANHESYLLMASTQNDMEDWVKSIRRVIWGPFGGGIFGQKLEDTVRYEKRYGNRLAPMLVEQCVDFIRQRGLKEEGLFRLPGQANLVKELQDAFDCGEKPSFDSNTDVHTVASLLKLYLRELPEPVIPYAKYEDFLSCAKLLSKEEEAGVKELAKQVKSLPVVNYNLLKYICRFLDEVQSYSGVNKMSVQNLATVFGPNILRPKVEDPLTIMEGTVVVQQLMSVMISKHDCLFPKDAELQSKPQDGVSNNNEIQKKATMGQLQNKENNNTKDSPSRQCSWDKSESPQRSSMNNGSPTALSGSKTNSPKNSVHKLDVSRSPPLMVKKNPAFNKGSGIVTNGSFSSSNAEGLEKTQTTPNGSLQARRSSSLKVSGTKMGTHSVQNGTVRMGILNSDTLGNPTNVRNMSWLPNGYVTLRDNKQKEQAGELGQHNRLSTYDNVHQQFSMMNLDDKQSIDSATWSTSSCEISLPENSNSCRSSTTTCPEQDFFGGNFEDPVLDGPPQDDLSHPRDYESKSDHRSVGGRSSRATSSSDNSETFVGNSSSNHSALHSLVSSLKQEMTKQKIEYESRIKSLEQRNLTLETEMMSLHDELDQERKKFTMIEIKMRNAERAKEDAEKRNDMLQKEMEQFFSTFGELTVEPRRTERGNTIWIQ
UniProt O14791: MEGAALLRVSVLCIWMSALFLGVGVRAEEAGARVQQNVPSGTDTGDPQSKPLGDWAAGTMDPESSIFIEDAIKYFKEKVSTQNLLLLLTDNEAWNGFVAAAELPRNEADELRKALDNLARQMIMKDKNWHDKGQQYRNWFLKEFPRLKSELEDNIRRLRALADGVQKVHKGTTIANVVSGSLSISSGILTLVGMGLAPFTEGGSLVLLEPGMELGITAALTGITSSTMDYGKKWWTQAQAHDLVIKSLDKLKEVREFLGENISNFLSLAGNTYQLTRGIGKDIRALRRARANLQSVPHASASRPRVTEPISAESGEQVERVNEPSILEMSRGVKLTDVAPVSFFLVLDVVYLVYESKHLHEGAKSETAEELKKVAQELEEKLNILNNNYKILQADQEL
UniProt Q66PJ3: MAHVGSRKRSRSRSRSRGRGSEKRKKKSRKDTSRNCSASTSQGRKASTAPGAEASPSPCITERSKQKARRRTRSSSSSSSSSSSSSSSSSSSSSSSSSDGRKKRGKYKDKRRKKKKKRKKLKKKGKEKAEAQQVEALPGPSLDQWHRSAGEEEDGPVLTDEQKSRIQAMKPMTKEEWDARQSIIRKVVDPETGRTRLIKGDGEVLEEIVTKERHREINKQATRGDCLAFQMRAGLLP
UniProt P05067, whole entry, looked up: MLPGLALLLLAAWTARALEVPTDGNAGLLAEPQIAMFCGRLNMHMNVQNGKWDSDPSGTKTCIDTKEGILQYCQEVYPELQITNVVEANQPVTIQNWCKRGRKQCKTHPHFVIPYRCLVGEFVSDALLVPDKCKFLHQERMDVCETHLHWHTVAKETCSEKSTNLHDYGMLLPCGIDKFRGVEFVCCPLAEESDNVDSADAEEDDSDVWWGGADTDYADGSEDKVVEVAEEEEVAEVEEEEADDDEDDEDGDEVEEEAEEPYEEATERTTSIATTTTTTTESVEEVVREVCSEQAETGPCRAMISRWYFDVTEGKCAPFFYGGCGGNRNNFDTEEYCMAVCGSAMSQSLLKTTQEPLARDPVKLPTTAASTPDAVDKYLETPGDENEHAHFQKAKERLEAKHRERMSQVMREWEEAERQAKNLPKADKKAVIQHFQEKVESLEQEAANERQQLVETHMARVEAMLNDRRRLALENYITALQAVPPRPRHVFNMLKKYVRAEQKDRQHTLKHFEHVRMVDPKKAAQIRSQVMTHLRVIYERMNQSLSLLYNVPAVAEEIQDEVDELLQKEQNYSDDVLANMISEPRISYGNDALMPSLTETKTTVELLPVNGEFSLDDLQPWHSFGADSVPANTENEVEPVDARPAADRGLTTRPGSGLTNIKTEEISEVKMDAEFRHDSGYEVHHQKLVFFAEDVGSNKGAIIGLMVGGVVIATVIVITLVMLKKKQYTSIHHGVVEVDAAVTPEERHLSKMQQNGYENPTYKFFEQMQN
UniProt Q93070: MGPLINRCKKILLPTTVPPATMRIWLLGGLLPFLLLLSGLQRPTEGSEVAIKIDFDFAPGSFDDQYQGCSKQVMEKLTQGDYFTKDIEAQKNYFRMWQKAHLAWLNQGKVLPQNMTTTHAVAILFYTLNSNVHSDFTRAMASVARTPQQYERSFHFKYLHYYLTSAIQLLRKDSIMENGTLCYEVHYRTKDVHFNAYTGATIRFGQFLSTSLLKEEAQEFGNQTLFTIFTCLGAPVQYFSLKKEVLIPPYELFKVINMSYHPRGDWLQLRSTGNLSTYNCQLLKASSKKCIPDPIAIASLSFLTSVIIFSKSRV
UniProt Q96C12: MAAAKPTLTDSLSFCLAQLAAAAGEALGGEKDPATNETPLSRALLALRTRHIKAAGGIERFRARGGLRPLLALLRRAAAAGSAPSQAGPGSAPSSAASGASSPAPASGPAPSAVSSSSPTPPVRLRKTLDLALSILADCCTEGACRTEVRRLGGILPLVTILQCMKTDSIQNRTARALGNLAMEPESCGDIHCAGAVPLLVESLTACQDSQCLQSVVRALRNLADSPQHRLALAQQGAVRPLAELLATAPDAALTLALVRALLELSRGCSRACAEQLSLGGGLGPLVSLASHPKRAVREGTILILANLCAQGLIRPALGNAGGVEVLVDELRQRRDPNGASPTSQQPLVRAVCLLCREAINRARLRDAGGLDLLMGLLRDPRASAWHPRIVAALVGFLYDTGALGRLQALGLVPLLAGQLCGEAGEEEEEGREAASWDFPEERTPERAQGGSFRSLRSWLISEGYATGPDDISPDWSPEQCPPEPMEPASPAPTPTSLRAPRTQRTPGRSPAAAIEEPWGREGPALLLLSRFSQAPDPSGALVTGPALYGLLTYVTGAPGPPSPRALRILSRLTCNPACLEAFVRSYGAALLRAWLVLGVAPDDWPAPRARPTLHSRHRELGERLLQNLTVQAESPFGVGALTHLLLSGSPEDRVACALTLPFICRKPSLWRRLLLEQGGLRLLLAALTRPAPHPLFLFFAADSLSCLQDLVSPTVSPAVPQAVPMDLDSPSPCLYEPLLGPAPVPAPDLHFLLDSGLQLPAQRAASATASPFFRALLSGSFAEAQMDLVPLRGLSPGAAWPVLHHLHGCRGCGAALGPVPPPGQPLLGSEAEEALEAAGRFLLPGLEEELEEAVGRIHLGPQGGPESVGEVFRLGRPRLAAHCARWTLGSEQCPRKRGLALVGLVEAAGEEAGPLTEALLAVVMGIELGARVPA
UniProt Q7Z5H3: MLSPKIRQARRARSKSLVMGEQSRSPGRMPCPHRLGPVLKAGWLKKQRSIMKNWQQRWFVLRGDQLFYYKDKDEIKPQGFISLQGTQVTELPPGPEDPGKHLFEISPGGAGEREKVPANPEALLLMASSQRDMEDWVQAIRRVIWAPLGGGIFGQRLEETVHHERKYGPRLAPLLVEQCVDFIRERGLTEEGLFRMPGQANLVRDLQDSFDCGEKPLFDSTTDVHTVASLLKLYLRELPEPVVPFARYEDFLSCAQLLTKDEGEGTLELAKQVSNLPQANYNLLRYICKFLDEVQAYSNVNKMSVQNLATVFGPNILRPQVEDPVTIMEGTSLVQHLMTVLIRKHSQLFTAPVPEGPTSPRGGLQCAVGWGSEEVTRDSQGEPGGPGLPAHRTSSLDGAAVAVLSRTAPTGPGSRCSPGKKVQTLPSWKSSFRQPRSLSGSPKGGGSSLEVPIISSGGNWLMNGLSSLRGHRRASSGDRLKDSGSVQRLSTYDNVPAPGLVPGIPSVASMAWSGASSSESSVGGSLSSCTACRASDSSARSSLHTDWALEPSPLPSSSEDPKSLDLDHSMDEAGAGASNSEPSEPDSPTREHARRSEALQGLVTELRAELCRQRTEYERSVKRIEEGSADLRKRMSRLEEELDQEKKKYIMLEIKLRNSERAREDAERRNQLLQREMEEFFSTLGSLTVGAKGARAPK
UniProt P29972: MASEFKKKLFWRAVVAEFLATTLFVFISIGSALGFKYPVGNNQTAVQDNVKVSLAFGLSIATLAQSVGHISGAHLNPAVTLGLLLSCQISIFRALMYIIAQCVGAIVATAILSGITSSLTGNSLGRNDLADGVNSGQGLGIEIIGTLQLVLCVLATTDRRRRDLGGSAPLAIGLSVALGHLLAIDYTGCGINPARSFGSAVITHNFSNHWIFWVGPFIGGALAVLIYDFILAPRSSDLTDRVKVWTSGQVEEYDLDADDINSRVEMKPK
UniProt Q9H6L4: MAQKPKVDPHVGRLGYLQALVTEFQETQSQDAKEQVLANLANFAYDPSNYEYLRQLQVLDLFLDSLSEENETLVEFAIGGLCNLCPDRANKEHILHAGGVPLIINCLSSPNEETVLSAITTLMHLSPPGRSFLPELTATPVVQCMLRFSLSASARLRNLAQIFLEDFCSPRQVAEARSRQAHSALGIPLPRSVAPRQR
UniProt Q7Z2E3: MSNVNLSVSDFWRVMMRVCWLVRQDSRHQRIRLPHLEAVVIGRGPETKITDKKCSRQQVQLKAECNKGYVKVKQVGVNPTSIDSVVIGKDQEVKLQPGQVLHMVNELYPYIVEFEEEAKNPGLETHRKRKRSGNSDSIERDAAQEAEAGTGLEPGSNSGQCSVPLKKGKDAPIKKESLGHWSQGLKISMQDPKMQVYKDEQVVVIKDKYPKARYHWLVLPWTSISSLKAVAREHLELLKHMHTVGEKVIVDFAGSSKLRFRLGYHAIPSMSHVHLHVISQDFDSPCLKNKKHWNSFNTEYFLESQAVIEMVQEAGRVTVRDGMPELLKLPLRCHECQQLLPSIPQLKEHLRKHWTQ
UniProt Q9P2N2: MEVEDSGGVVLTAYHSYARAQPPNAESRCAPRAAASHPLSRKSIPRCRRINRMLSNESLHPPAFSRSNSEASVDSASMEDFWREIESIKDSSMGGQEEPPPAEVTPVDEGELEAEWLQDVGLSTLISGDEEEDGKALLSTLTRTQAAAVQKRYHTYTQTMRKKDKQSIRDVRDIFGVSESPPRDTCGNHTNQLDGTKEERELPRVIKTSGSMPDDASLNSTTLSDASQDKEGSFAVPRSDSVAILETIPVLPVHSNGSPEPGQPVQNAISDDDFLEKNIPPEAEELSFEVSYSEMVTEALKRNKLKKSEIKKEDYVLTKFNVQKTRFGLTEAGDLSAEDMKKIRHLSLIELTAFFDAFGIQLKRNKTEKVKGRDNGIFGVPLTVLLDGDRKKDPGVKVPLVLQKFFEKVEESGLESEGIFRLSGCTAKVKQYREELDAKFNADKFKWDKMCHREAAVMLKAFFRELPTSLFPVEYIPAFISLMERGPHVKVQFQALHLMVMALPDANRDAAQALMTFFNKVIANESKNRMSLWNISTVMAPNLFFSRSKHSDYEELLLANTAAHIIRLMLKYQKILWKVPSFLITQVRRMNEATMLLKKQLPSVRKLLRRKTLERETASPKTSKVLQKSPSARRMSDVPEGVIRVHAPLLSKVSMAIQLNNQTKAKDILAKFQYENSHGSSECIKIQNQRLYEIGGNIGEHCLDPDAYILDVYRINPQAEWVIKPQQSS
UniProt Q96BI3, whole entry, looked up: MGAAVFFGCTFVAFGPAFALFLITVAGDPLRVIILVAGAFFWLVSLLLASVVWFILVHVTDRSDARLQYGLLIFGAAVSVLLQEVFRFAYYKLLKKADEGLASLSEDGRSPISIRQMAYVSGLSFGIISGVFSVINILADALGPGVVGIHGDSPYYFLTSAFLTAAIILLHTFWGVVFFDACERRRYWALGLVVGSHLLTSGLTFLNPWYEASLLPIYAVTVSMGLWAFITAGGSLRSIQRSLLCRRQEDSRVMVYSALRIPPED

Legend:
Test in all cases: log2 fold change, soluble protein after heating vs DMSO (PISA); higher = thermal stabilisation; K562 lysate, 10 uM; active = over 0.2 and 3.5 SD of the protein, either way, in both replicates (recomputed)
[1] = compound: c1ccc([C@@H]2C[C@H]2NC2CCNCC2)cc1
Procedure, shortened: (§1)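 Log-two fold change in thermal stability relative to solvent controls is reported from duplicates. For each sample, crude K562 extract from dounce-homogenised pellets in PBS pH 7.4 with 1 mM MgCl2, at 1 mg/mL protein, was treated with 10 μM compound for 30 min. Aliquots heated for 3 min across 48°C-58°C were pooled, brought to 0.5% NP-40 at 4°C and cleared at 21,000xg for 90 min. The supernatant was quantified by TMTpro 16plex LC-MS/MS with channel sums equalised.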

[2] = compound: CC1=C2C(=CC=C1)N=C(N(C2=O)C3=CC=CC=C3C)CN4C=NC5=C(N=CN=C54)N
Procedure, shortened: as §1

[3] = compound: Cc1sc2c(c1C)C(c1ccc(Cl)cc1)=N[C@@H](CC(=O)OC(C)(C)C)c1nnc(C)n1-2
Procedure, shortened: as §1

[4] = compound: C1=CC=C(C=C1)[C@H](COC2=CC3=C(C=C2)NC(=O)N3)NC(=O)C4=CC=CN(C4=O)CC5=CC(=C(C=C5)F)F
Procedure, shortened: as §1

[5] = compound: CC1=C(SC2=C1C(=N[C@H](C3=NN=C(N32)C)CC(=O)N)C4=CC=C(C=C4)Cl)C
Procedure, shortened: as §1

ARMC8 isoform 6 (UniProt Q8IUR7)
log2 fold change [1]: inactive: -0.067

APBA3 (UniProt O96018)
log2 fold change [2]: inactive: -0.1

ARHGAP24 (UniProt Q8N264)
log2 fold change [2]: inactive: 0.419
log2 fold change [1]: inactive: 0.006

APOL1 isoform 2 (UniProt O14791)
log2 fold change [3]: inactive: 0.081
log2 fold change [1]: inactive: 0.085

AP5B1 (UniProt Q2VPB7)
log2 fold change [4]: inactive: 0.079
log2 fold change [5]: inactive: -0.023
log2 fold change [3]: inactive: -0.044
log2 fold change [1]: inactive: -0.003

ARL6IP4 isoform 4 (UniProt Q66PJ3)
log2 fold change [2]: inactive: 0.058
log2 fold change [1]: inactive: -0.194

APP (UniProt P05067)
log2 fold change [4]: inactive: -0.006
log2 fold change [5]: inactive: -0.024
log2 fold change [3]: inactive: 0.109
log2 fold change [1]: inactive: -0.03

ARMCX5 (UniProt Q6P1M9)
log2 fold change [4]: inactive: 0.021
log2 fold change [5]: inactive: -0.07
log2 fold change [2]: inactive: 0.057
log2 fold change [3]: inactive: 0.036
log2 fold change [1]: inactive: -0.03

ART4 (UniProt Q93070)
log2 fold change [4]: inactive: 0.069
log2 fold change [5]: inactive: 0.014
log2 fold change [2]: inactive: 0.074
log2 fold change [1]: inactive: -0.016

ARSK (UniProt Q6UWY0)
log2 fold change [2]: inactive: -0.113
log2 fold change [3]: inactive: -0.016
log2 fold change [1]: inactive: 0.01

ARMC5 (UniProt Q96C12)
log2 fold change [1]: inactive: 0.06

ARHGAP12 isoform 3 (UniProt Q8IWW6)
log2 fold change [2]: inactive: 0.071
log2 fold change [3]: inactive: 0.037
log2 fold change [1]: inactive: -0.039

ARHGAP22 isoform 2 (UniProt Q7Z5H3)
log2 fold change [3]: inactive: -0.143

AQP1 (UniProt P29972)
log2 fold change [1]: inactive: -0.008

APOD (UniProt P05090)
log2 fold change [3]: inactive: 0.105
log2 fold change [1]: inactive: -0.137

ARMC7 (UniProt Q9H6L4)
log2 fold change [2]: inactive: 0.223
log2 fold change [3]: inactive: 0.006

APTX isoform 4 (UniProt Q7Z2E3)
log2 fold change [1]: inactive: -0.048

ARF1 (UniProt P84077)
log2 fold change [1]: inactive: 0.116

APOBEC3B (UniProt Q9UH17)
log2 fold change [2]: inactive: 0.056
log2 fold change [3]: inactive: -0.107
log2 fold change [1]: inactive: -0.051

APPBP2 (UniProt Q92624)
log2 fold change [4]: inactive: -0.052
log2 fold change [5]: inactive: 0.067
log2 fold change [1]: inactive: 0.073

ARHGAP28 (UniProt Q9P2N2)
log2 fold change [4]: inactive: -0.028
log2 fold change [5]: inactive: -0.025
log2 fold change [3]: inactive: 0.009

APH1A (UniProt Q96BI3)
log2 fold change [4]: inactive: -0.032
log2 fold change [5]: inactive: 0.066
log2 fold change [1]: inactive: 0.122

ARHGEF2 (UniProt V9GYF0)
log2 fold change [2]: inactive: 0.098
log2 fold change [3]: inactive: 0.105

APLNR (UniProt P35414)
log2 fold change [1]: inactive: -0.069
